Results deposited as PubChem BioAssay AID493246 (Drosophila RNAi Screening Center, 2011)
Assay: 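Genes fly cells need to grow and stay alive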 (primary screen). System: Drosophila Kc and S2R+ cells. Reagent: long dsRNA against Drosophila genes. Detection: 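Cell number per well after knock-down, printed as raw plate values; calls were based on per-plate z-scores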. Scale: Kc cell number and S2R+ cell number: higher = more cells remaining. Call rule: 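Active when the per-plate z-score of cell number is 3 or more in the direction of fewer cells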.
The screen tested about 21,000 reagents; shown is a random part of those with a known target gene and a result. Over the whole deposit, 429 (2%) were called active. 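Values are raw and not normalised between plates; calls rest on per-plate z-scores that were not deposited.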 The numbers tell different reagents against one gene apart. Names joined by + are all predicted targets of the reagent. The record does not give: the amount of reagent, the time to read-out.

| gene | dsRNA no. | Kc cell number, rep 1 | Kc cell number, rep 2 | S2R+ cell number, rep 1 | S2R+ cell number, rep 2 | call |
| --- | --- | --- | --- | --- | --- | --- |
| CG10749 | 1 | 1.39e6 | 1.32e6 | 1.30e6 | 1.40e6 | inactive |
| futsch | 1 | 1.30e6 | 1.47e6 | 1.08e6 | 1.13e6 | inactive |
| futsch | 2 | 1.37e6 | 1.51e6 | 1.01e6 | 1.11e6 | inactive |
| futsch | 3 | 5.15e5 | – | 8.10e5 | – | inactive |
| futsch | 4 | 1.57e6 | 1.71e6 | 1.02e6 | 1.09e6 | inactive |
| Naa35 (N(alpha)-acetyltransferase 35) | 1 | 1.25e6 | 1.35e6 | 1.00e6 | 1.11e6 | inactive |
| Prm (Paramyosin) | 1 | 1.33e6 | 1.46e6 | 1.09e6 | 1.26e6 | inactive |
| Prm (Paramyosin) | 2 | 1.36e6 | 1.43e6 | 9.83e5 | 1.14e6 | inactive |
| Prm (Paramyosin) | 3 | 1.37e6 | 1.47e6 | 1.26e6 | 1.21e6 | inactive |
| CG14411 | 1 | 1.51e6 | 1.49e6 | 1.18e6 | 1.22e6 | inactive |
| CG6972 | 1 | 1.57e6 | 1.66e6 | 9.85e5 | 1.10e6 | inactive |
| Ptp69D (Protein tyrosine phosphatase 69D) | 1 | 1.36e6 | 1.64e6 | 1.16e6 | 1.25e6 | inactive |
| l(3)07882 (lethal (3) 07882) | 1 | 1.47e6 | 1.60e6 | 1.15e6 | 1.22e6 | inactive |
| PIG-T (Phosphatidylinositol glycan anchor biosynthesis class T) | 1 | 1.43e6 | 1.42e6 | 1.08e6 | 1.18e6 | inactive |
| CG7264 | 1 | 1.44e6 | 1.47e6 | 1.07e6 | 1.20e6 | inactive |
| Prx6c (Peroxiredoxin 6c) | 1 | 1.56e6 | 1.66e6 | 1.18e6 | 1.36e6 | inactive |
| Gld (Glucose dehydrogenase) | 1 | 1.64e6 | 1.81e6 | 1.28e6 | 1.34e6 | inactive |
| Nhe2 (Na[+]/H[+] hydrogen exchanger 2) | 1 | 1.52e6 | 1.60e6 | 1.23e6 | 3.48e5 | inactive |
| Nhe2 (Na[+]/H[+] hydrogen exchanger 2) | 2 | 1.67e6 | 1.78e6 | 1.37e6 | 4.77e5 | inactive |
| obst-I (obstructor-I) | 1 | 1.44e6 | 1.44e6 | 1.24e6 | 1.34e6 | inactive |
| ScsbetaG (Succinyl-coenzyme A synthetase beta subunit, GDP-forming) | 1 | 1.53e6 | 1.50e6 | 1.16e6 | 1.24e6 | inactive |
| Mipp2 (Multiple inositol polyphosphate phosphatase 2) | 1 | 5.83e5 | – | 9.43e5 | – | inactive |
| CG2765 | 1 | 1.26e6 | 1.28e6 | 1.12e6 | 1.01e6 | inactive |
| Calr (Calreticulin) | 1 | 1.47e6 | 1.36e6 | 1.11e6 | 1.21e6 | inactive |
| Vps16A (Vacuolar protein sorting 16A) | 1 | 1.82e6 | 1.81e6 | 1.16e6 | 1.34e6 | inactive |
| Rnp4F (RNA-binding protein 4F) | 1 | 5.53e5 | – | 8.66e5 | – | inactive |
| CG7011 + Prp31 | 1 | 1.86e6 | 1.93e6 | 1.24e6 | 1.31e6 | inactive |
| PGAP5 (Post-GPI attachment to proteins 5) | 1 | 1.70e6 | 1.84e6 | 1.33e6 | 1.46e6 | inactive |
| dup (double parked) | 1 | 5.35e5 | 5.87e5 | 4.71e5 | 5.75e5 | active |
| CG13727 | 1 | 1.45e6 | 1.46e6 | 1.22e6 | 1.34e6 | inactive |
| CG7518 | 1 | 1.62e6 | 1.68e6 | 1.15e6 | 1.31e6 | inactive |
| CG8192 | 1 | 1.34e6 | 1.40e6 | 7.55e5 | 8.01e5 | inactive |
| CG15905 | 1 | 1.60e6 | 1.77e6 | 1.30e6 | 1.51e6 | inactive |
| Gr39b (Gustatory receptor 39b) | 1 | 5.56e5 | – | 8.36e5 | – | inactive |
| CG17991 | 1 | 1.57e6 | 1.59e6 | 1.11e6 | 1.26e6 | inactive |
| vap (vacuolar peduncle) | 1 | 5.35e5 | – | 9.60e5 | – | inactive |
| Mocs1 (Molybdenum cofactor synthesis 1) | 1 | 1.42e6 | 1.41e6 | 1.27e6 | 1.31e6 | inactive |
| Rab3GAP1 (RAB3 GTPase activating protein subunit 1) | 1 | 1.63e6 | 1.64e6 | 1.14e6 | 1.29e6 | inactive |
| Rab3GAP1 (RAB3 GTPase activating protein subunit 1) | 2 | 1.64e6 | 1.69e6 | 1.17e6 | 1.34e6 | inactive |
| CG1674 | 1 | 1.58e6 | 1.55e6 | 1.02e6 | 1.13e6 | inactive |

7 of these entries, set out differently:
CG13727 — Kc cell number, rep 1: 1.45e6; Kc cell number, rep 2: 1.46e6; S2R+ cell number, rep 1: 1.22e6; S2R+ cell number, rep 2: 1.34e6; call: inactive
CG7518 — Kc cell number, rep 1: 1.62e6; Kc cell number, rep 2: 1.68e6; S2R+ cell number, rep 1: 1.15e6; S2R+ cell number, rep 2: 1.31e6; call: inactive
CG8192 — Kc cell number, rep 1: 1.34e6; Kc cell number, rep 2: 1.40e6; S2R+ cell number, rep 1: 7.55e5; S2R+ cell number, rep 2: 8.01e5; call: inactive
CG15905 — Kc cell number, rep 1: 1.60e6; Kc cell number, rep 2: 1.77e6; S2R+ cell number, rep 1: 1.30e6; S2R+ cell number, rep 2: 1.51e6; call: inactive
Gr39b (Gustatory receptor 39b) — Kc cell number, rep 1: 5.56e5; S2R+ cell number, rep 1: 8.36e5; call: inactive
CG17991 — Kc cell number, rep 1: 1.57e6; Kc cell number, rep 2: 1.59e6; S2R+ cell number, rep 1: 1.11e6; S2R+ cell number, rep 2: 1.26e6; call: inactive
vap (vacuolar peduncle) — Kc cell number, rep 1: 5.35e5; S2R+ cell number, rep 1: 9.60e5; call: inactive
